These results are taken from publication PMC9897159.

These are yes or no findings as the source states them, for the method shown. In cells and extracts the contact can be indirect. Some entries that bind do so weakly or less than the wild type.

Experiment [1] has as its target SARS-CoV-2 E protein fused to YFP (SARS-CoV-2) (UniProt P0DTC4). The experiment can be described thus: FRET or BRET. (In general: Bioluminescence resonance energy transfer reports proximity on the nanometre scale.)
For experiment [2], the target named is SARS-CoV-2 E protein deletion mutant lacking amino acids 53 to 65, HA-tagged (SARS-CoV-2) (UniProt P0DTC4). The experiment can be described thus: co-IP.

As for “human RNF5 fused to ECFP (from UniProt Q99942 1-180) (enzyme)”, the binding result in experiment [1] is on record as “binds”.
“human RNF5 with a Flag tag (from UniProt Q99942 1-180) (enzyme)”: the binding result in experiment [2] is given as “binds”.
